US20090131512A1, “Inhibition of type I in IFN production” (Dynavax Technologies Corp., priority 2007, published 2009)
At least one structure is not confirmed: it was looked up by name or label, or the drawing left a doubt.

How the values were obtained:
purified pDC = assay: pDC maturation: CD80 and CD86 surface expression, flow cytometry; assay type: cell-based, human; conditions: CpG-C 1 μM, HSV 5 MOI or Flu 1 MOI; 16 h
purified human pDC = assay: IFN-α production by TLR-activated purified pDC, ELISA; assay type: cell-based; conditions: CpG-C 1 μM, HSV 5 MOI or Flu 1 MOI, 16 hr
[1] = tested on: PI3K (P-Akt, downstream target of PI3K) in primary human pDC; assay: Akt/PKB phosphorylation (P-Akt) by flow cytometry in TLR-stimulated pDC; assay type: cell-based; conditions: LY 1 μM; 1 μM CpG-C or 2 MOI Flu; 20 and 90 min
Flu-activated mouse pDC = conditions: cited from earlier work

Row | Compound | surface expression of costimulatory molecules CD80 and CD86 (purified pDC) | IFN-α production in response to TLR7 and TLR9 ligands (purified human pDC) | P-Akt upregulation induced by CpG-C or Flu [1] | autophagy (Flu-activated mouse pDC) | type I IFN production (Flu-activated mouse pDC)
1 | O=c1cc(N2CCOCC2)oc2c(-c3ccccc3)cccc12 [LY294002] | no statistical difference | strongly inhibited | blocked | – | –
2 | COC[C@H]1OC(=O)c2coc3c2[C@@]1(C)C1=C(C3=O)[C@@H]2CCC(=O)[C@@]2(C)C[C@H]1OC(C)=O [wortmannin] | – | – | – | inhibited | without any effect
